These are yes or no findings as the source states them, for the method shown. In cells and extracts the contact can be indirect. Here binding means that the protein was enriched with, or labelled near, the bait; the list need not be complete.
Target: T1, Ubiquitin-specific protease 13 (USP13), endogenous in BV2 microglia (mouse (endogenous in BV2)) (UniProt Q5BKP2)
T1 sequence: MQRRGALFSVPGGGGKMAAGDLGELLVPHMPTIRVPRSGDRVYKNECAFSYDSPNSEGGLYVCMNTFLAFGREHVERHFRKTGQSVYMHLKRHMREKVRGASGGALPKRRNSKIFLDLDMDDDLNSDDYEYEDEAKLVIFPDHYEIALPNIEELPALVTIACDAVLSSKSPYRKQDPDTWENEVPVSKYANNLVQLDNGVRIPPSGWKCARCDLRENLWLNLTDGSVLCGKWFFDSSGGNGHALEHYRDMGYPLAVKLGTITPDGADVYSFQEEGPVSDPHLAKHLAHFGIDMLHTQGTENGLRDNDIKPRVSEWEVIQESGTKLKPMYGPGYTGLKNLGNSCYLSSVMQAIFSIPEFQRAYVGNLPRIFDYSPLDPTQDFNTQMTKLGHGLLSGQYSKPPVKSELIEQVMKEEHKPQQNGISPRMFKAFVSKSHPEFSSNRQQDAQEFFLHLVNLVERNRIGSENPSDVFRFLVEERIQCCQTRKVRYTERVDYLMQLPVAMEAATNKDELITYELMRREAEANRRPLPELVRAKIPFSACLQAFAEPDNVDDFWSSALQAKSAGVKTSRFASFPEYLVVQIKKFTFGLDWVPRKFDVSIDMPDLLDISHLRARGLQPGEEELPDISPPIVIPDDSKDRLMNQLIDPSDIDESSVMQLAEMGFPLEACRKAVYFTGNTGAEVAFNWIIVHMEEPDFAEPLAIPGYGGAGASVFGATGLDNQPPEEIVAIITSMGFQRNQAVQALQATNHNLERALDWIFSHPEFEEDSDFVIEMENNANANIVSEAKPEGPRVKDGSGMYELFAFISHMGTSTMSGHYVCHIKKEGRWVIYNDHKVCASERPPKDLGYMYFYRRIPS
Assay: affinity purification with mass spectrometry; IP coupled with mass spectrum (IP/MS) to find proteins that interact with USP13; in microglia (by the discussion)

Amino acid sequences for entries named in this document (tags omitted).
UniProt Q9Z1E3: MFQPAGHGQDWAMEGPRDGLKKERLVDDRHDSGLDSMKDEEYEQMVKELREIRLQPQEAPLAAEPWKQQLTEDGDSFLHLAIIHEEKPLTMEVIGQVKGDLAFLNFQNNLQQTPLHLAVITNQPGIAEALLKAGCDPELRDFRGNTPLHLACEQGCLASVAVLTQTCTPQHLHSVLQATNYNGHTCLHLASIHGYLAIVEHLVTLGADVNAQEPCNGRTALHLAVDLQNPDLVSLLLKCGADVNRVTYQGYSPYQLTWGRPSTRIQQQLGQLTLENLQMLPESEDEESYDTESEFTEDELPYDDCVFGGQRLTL

binding: binds
Substance: NF-κB inhibitor alpha (IκBα), endogenous in BV2 microglia (from UniProt Q9Z1E3 1-314)
